Data on 19 compounds can be found in PubChem BioAssay AID2685 (National Center for Advancing Translational Sciences (NCATS), 2010).

This assay in a line: qHTS Assay for Lipid Storage Modulators in Drosophila S3 Cells.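 For cell number change: cells counted by Cell Tracker Red CMTPX staining in the red channel.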 Particulars: BODIPY lipid droplet fluorescence, 18-24 h; for cell number change: measured here: cell count max response, cells fed with added oleic acid. In a few lines:
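Drosophila S3 cells loaded with oleic acid (400 uM, as added) and compounds at several concentrations; lipid droplets imaged by 488-nm laser-scanning cytometry, 500–530 nm intensity and object ratio to cell channel. Percent activity normalized to 20 uM Triacsin C.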
In general terms: In qHTS, concentration-response curves come from the screen itself.

The mark [1] stands for this setting: measured here: lipid fluorescence (Fed channel) AC50, cells fed with added oleic acid.
The mark [2] stands for this setting: measured here: cell number channel AC50, cells fed with added oleic acid.

The other results are listed elsewhere or left out. Shown are side measurements of this screen, not its main read-out; they come without a call. Compounds called inactive in the main read-out are mostly missing here. The note in brackets gives the kind of curve behind each potency; many fits are weak.

As to `Cc1ccc(CN2CC(C(=O)O)CC2=O)cc1` (stereo unspecified), the cell number change is -6.83%. For the same compound, the half-maximal activity concentration (AC50) under setting [1] is 6510 nM [falling, single point]. In the case of `CCCn1c(N2CCC(Cc3ccccc3)CC2)nc2c1c(=O)[nH]c(=O)n2C`, the cell number change is -35%. Also, the AC50 under setting [2] is 16400 nM [falling, single point]. Further, the half-maximal activity concentration (AC50) under setting [1] is 4110 nM [rising, single point]. In the case of `COc1ccc(OC)c(CN2CCCC(CO)C2)c1` (stereo unspecified), the cell number change is -106%. Besides, the half-maximal activity concentration (AC50) under setting [2] was 29100 nM [falling, single point]. Turning to `Cc1cccc(-n2cnc3cc([N+](=O)[O-])ccc32)c1`, the cell number change was determined as 1.05%. Also, under setting [1], the AC50 was 291 nM [rising, full curve]. As to `O=C(CCC1CCCCC1)Nc1ccccc1C(=O)N1CCOCC1`, the cell number change was -23.8%. Also, the AC50 under setting [1] is 5170 nM [falling, partial curve]. Take `Cc1ccc(OCCCC(=O)Nc2ccc(Br)cc2)cc1`: the cell number change was 9.22%. Further, the AC50 under setting [1] is 326 nM [falling, partial curve, poor fit]. As to `O=S(=O)(c1ccc(-c2ccccc2)cc1)N1CCCC1`, the cell number change is -24%.

As for `CC1=C(C)CC(C(=O)NCCc2ccc(F)cc2)C(C(=O)O)C1` (stereo unspecified), the cell number change is 14.5%. Also, under setting [1], the concentration at half-maximal activity (AC50) was 29100 nM [rising, single point]. As to `COc1ccccc1N=C1SC(C(=O)Nc2cccc(Cl)c2Cl)C(N)=C1C(N)=O` (stereo unspecified), the cell number change is -18.5%. In addition, the concentration at half-maximal activity (AC50) under setting [1] is 2310 nM [rising, single point]. Take `CC(OC(=O)c1cccs1)C(=O)NC1CCCCC1C` (stereo unspecified): the cell number change was 0.184%. Moreover, the AC50 under setting [1] was 1030 nM [rising, full curve, poor fit].

Regarding `COc1ccc(NS(=O)(=O)c2cc(NC(=O)c3ccc(=O)[nH]n3)ccc2N2CCOCC2)cc1`, the cell number change turned out to be 5.95%. For `Cc1ccc(/C=N/NC(=S)NCCc2ccccc2)s1`, the cell number change was 60.2%. Also, the AC50 under setting [2] is 20600 nM [rising, single point]. On to `O=C(CN1CCCCCC1)Nc1ccc(Cl)cn1`, for which the cell number change was -0.529%. `O=C(Nc1ccc(Cl)c(Cl)c1)OCc1cncs1`: the cell number change was found to be 34.3%. In addition, the AC50 under setting [2] was 1840 nM [rising, partial curve, poor fit]. Also, the AC50 under setting [1] was 2310 nM [rising, partial curve].

Consider `CCn1c(-c2cc(-c3ccc(C)cc3)nc3ccccc23)n[nH]c1=S`, for which the cell number change is -9.04%. The AC50 under setting [2] was 2910 nM [rising, single point].

Take `CC(=O)N/N=C/c1ccc(OCCOc2ccc(Br)cc2)cc1`: the cell number change stood at 27.3%. Under setting [1], the AC50 is 5170 nM [rising, full curve].

As to `CC(C)C(OC(=O)c1nsc(Cl)c1Cl)C(=O)NCc1ccccc1` (stereo unspecified), the cell number change came out at 9.01%. As for `Cc1cccc2cc(C#N)c(SCC(=O)NCc3cccs3)nc12`, the cell number change was found to be 37.9%. Further, under setting [2], the AC50 was 1460 nM [rising, full curve]. Consider `O=C(NC(Cc1c[nH]c2ccccc12)c1nnc2n1CCCCC2)c1ccccc1Cl` (stereo unspecified), for which the cell number change was 1.99%. Further, under setting [1], the AC50 was 1300 nM [rising, full curve].

Usually AC50 stands for the concentration at which the activity in the assay is half-maximal. Read a high AC50 as weaker potency.
